No constants are given. Whether binding was seen depends on the method and setting. Some entries that bind do so weakly or less than the wild type.
Key:
rat megalin [1] = biological target: T1, rat megalin (rat, UniProt P98158 26-4660); test: SPR; rat megalin or cubilin immobilised; chip pre-saturated with RAP (5 uM), then cysC 150 nM flowed; CaHBS running buffer; both purified
T1 construct: megalin, rat, purified and immobilised on the SPR chip; probably the native receptor purified from rat kidney (surmised)

Amino acid sequences for entries named in this document (tags omitted). Residues count along the entry.
UniProt O70244, residues 33-3623: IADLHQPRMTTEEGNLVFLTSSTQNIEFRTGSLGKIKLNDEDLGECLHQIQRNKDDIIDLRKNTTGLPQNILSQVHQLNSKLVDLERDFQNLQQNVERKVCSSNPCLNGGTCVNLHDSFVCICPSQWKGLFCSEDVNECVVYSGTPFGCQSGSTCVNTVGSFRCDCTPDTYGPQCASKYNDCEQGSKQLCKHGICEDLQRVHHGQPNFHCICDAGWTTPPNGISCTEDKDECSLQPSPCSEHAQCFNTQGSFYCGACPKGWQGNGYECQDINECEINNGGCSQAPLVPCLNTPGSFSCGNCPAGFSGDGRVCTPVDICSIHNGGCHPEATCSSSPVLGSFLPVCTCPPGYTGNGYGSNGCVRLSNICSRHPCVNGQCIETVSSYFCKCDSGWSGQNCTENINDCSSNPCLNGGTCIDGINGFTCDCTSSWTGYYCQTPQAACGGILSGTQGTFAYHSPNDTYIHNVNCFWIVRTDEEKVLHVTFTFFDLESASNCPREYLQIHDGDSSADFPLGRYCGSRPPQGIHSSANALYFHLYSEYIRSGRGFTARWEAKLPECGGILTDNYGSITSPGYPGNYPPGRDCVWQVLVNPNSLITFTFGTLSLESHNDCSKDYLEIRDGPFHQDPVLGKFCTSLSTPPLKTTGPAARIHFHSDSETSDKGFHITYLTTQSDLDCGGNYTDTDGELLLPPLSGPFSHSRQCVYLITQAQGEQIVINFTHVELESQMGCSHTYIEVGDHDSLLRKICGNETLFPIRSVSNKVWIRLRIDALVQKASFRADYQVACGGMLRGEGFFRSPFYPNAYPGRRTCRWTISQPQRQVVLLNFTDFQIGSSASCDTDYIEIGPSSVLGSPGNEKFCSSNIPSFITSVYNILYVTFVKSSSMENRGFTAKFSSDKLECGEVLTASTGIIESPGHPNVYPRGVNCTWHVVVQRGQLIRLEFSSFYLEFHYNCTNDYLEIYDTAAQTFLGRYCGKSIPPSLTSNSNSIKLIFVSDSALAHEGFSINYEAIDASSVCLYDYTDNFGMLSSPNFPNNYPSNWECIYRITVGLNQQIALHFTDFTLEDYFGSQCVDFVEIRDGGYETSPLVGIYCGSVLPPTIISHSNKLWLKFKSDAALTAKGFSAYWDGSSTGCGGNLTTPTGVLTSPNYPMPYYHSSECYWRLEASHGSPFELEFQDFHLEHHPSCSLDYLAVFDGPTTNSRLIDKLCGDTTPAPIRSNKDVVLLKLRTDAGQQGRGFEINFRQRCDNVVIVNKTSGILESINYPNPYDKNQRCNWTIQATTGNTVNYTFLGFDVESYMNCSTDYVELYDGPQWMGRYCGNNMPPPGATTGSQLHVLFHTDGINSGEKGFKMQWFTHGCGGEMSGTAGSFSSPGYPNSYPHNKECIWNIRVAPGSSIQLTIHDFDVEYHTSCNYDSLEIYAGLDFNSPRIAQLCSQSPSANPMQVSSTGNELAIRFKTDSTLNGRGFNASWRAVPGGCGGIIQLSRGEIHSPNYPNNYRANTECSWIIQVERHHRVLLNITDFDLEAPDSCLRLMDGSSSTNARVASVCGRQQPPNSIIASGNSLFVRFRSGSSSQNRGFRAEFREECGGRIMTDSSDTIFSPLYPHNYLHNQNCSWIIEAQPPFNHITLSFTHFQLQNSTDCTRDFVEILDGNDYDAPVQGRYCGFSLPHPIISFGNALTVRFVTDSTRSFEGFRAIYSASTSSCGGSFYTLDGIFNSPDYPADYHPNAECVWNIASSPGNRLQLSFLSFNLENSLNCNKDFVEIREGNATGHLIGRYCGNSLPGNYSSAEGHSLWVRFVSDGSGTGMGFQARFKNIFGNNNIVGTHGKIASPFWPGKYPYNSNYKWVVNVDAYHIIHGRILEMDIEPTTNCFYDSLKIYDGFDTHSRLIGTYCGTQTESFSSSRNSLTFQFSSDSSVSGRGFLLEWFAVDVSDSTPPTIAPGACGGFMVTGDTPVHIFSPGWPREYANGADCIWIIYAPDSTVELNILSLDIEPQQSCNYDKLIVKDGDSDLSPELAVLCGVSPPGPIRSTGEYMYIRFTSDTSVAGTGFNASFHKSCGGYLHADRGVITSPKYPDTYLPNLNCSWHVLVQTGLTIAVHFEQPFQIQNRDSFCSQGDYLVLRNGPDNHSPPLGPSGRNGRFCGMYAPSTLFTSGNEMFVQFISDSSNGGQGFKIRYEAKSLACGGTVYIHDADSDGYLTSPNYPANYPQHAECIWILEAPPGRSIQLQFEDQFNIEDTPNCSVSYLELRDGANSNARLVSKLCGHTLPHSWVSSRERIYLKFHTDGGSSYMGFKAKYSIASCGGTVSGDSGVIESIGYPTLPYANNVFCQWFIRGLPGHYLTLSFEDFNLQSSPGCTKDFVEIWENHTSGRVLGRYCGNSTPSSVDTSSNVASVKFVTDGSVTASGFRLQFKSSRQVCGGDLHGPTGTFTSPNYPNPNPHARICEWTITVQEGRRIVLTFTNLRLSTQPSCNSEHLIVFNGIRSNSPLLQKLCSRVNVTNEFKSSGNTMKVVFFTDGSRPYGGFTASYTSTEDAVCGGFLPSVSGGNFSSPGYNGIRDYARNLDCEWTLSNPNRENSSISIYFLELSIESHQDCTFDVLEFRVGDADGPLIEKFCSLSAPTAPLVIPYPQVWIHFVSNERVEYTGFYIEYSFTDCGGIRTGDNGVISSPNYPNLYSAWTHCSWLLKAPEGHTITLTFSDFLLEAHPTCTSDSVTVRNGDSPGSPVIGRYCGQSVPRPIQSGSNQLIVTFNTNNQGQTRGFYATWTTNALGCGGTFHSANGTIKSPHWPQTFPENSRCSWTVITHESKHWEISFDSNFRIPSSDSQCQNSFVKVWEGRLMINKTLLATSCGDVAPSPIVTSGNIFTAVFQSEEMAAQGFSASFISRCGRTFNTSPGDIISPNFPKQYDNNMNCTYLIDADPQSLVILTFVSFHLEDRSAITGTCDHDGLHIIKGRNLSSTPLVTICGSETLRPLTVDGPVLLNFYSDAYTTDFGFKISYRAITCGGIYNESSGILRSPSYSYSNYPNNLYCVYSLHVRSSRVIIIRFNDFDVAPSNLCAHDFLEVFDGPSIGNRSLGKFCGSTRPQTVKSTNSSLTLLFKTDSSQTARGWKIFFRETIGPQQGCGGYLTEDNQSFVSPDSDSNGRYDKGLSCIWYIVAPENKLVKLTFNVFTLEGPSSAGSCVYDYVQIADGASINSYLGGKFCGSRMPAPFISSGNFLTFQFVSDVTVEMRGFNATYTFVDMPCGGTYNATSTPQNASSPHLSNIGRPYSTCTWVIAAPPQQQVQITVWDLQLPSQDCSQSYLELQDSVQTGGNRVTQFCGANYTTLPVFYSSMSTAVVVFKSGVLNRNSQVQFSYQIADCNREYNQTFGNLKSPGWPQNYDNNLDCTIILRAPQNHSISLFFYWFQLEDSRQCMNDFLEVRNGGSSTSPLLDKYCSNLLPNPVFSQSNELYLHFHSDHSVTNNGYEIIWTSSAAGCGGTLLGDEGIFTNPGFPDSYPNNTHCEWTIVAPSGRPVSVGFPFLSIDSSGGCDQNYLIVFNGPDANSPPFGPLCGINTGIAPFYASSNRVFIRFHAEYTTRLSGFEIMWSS
UniProt P30533, residues 35-357: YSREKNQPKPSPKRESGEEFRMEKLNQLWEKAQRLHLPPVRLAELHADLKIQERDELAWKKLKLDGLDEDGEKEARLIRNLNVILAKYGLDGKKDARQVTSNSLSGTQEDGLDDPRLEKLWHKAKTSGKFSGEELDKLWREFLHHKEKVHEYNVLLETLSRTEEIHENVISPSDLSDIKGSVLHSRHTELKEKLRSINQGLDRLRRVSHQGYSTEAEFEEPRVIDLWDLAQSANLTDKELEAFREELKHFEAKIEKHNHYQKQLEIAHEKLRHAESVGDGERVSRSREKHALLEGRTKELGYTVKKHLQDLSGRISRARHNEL

rat cubilin [2] = biological target: T2, rat cubilin (rat, UniProt O70244 33-3623); test: as above
T2 construct: cubilin, rat, purified and immobilised on the SPR chip; probably the native receptor purified from rat kidney (surmised)

rat megalin [3] = biological target: T1, rat megalin; test: SPR; data not shown; rat megalin or cubilin immobilised; 20 mM EDTA added to the running buffer, cysC at 150 and 300 nM; both purified
rat cubilin [4] = biological target: T2, rat cubilin; test: as above
rat megalin [5] = biological target: T1, rat megalin; test: SPR; rat megalin or cubilin immobilised; chip pre-saturated with RAP (5 uM), then cysC 150 nM flowed; CaHBS running buffer; both purified; remark: listed apart in the source
rat cubilin [6] = biological target: T2, rat cubilin; test: as above; remark: listed apart in the source

Measured: binding

receptor associated protein (RAP) (from UniProt P30533 35-357)
binds: rat megalin [1] | rat cubilin [2]

B1: human cystatin C (natural protein, UniProt P01034 27-146, looked up)
chain: SSPGKPPRLVGGPMDASVEEEGVRRALDFAVGEYNKASNDMYHSRALQVVRARKQIVAGVNYFLDVELGRTTCTKTQPNLDNCPFHDQPHLKRKAFCSFQIYAVPWQGTMTLSKSTCQDA
notes: also called cysC
binds: rat megalin [3] | rat cubilin [4] | rat megalin [5] | rat cubilin [6]

— paper PMC5456377, “Megalin dependent urinary cystatin C excretion in ischemic kidney injury in rats” (PLoS ONE, 2017)
